# Measurements: PubChem BioAssay AID2685 (National Center for Advancing Translational Sciences (NCATS), 2010)
# This is one part of the list. Further columns of the screen follow, without active or inactive calls. Most of these compounds were active or inconclusive in the main read-out, so they are no random draw. The note in brackets gives the kind of curve behind each potency; many fits are weak.
# Assay: qHTS Assay for Lipid Storage Modulators in Drosophila S3 Cells;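 as to cell number change: cells counted by Cell Tracker Red CMTPX staining in the red channel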
# Conditions: BODIPY lipid droplet fluorescence, 18-24 h; for cell number change: measured here: cell count max response, cells fed with added oleic acid
# Outline: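 Drosophila S3 cells got compounds at several concentrations plus oleic acid (400 uM solution). Laser-scanning cytometry with 488 nm excitation read lipid droplets at 500-530 nm and cells at 575-640 nm. Percent activity was relative to 20 uM Triacsin C.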
# [1] = measured here: lipid fluorescence (Fed channel) AC50, cells fed with added oleic acid
# [2] = measured here: cell number channel AC50, cells fed with added oleic acid
Compound,cell number change [%],AC50 [1],AC50 [2]
Cc1cc2cc(CNC(=O)Nc3cccc(Cl)c3)ccc2n1C,0.74,–,–
Cc1ccc(N(C)C2=NC(=O)CS2)cc1Cl,-0.365,"0.731 µM [rising, full curve]",–
CC(NC(=S)NC1CCC(C(C)(C)C)CC1)c1ccccc1 (configuration not stated),48.1,–,"36.6 µM [rising, partial curve]"
COc1ccc(N(C(=O)Cn2nnc3ccccc32)C(C(=O)NCc2ccco2)c2ccc(C)o2)cc1 (configuration not stated),-44,"14.6 µM [falling, single point]","14.6 µM [falling, partial curve]"
O=C(Nn1cc(C(=O)Nc2ccccc2F)c2ccccc2c1=O)c1cnccn1,-64.2,"0.0461 µM [falling, full curve, poor fit]","29.1 µM [falling, partial curve, poor fit]"
O=C(CC1CCCCC1)NCCOc1ccccc1,53.7,"23.1 µM [rising, partial curve]","11.6 µM [rising, partial curve, poor fit]"
CCC(C)[C@H](NC(=O)N1CCCC1)C(=O)O (some centres not stated),22.7,"2.31 µM [rising, partial curve]","4.61 µM [rising, partial curve]"
CC(C)n1nc(C(=O)NC2CCCCCC2)c2ccccc2c1=O,-18,"0.00461 µM [falling, full curve, poor fit]",–
Cc1cc(C)n(-c2ncnc3sc(C)c(C)c23)n1,-76,"16.4 µM [falling, partial curve, poor fit]","25.9 µM [falling, partial curve, poor fit]"
CNC(=O)c1cccc(NC(=O)c2cc(-c3ccccc3)nc3c2cnn3C(C)C)c1,-75.6,–,"11.6 µM [falling, partial curve]"
Cc1cc([N+](=O)[O-])nn1CC(=O)NNC(=S)Nc1ccc(F)cc1,-13.8,"0.164 µM [rising, full curve, poor fit]",–
Cc1ccc(S(=O)(=O)n2c([N+](=O)[O-])cnc2C)c(C)c1C,-31.2,–,"29.1 µM [falling, single point]"
CC(C)Oc1ccc(Cc2cnc(N)nc2N)cc1,81.9,–,"20.6 µM [rising, single point]"
Cc1ccc(OCc2nnc(SCc3ccc(C#N)cc3)n2-c2ccc(C)cc2)cc1,-0.809,–,"0.366 µM [rising, full curve]"
Cn1cc2cc(NC(N)=S)ccc2n1,37.4,–,–
O=C(NCc1ccccc1Cl)c1cnc2ccccc2n1,4.62,–,–
CC(C)(C)c1cc[n+](C2=C([O-])c3ccccc3C(=O)/C2=N\S(=O)(=O)c2ccccc2)cc1,-28.8,"18.4 µM [falling, single point]",–
COc1ccc(N2CCN(C(=O)COC(=O)c3ccc(CSC)o3)CC2)cc1,-3.81,"0.58 µM [falling, full curve, poor fit]",–
CCCN(CCC)Cc1c(C(=O)N/N=C/c2ccoc2)nnn1-c1nonc1N,12.9,"0.517 µM [rising, partial curve]",–
O=C(Nc1ccccc1)Nc1c(F)cccc1F,-17.5,"29.1 µM [falling, single point]",–
Cc1nc(N2CCN(Cc3ccccc3)CC2)nc2c1CCC2,13.6,"1.3 µM [rising, full curve, poor fit]",–

# Complete entries as entered above. Order of values: cell number change [%] | AC50 [1] | AC50 [2]
# Cc1ccc(OCc2nnc(SCc3ccc(C#N)cc3)n2-c2ccc(C)cc2)cc1 reads -0.809 | – | 0.366 µM [rising, full curve]
# Cn1cc2cc(NC(N)=S)ccc2n1 reads 37.4 | – | –
# O=C(NCc1ccccc1Cl)c1cnc2ccccc2n1 reads 4.62 | – | –
# COc1ccc(N(C(=O)Cn2nnc3ccccc32)C(C(=O)NCc2ccco2)c2ccc(C)o2)cc1 (configuration not stated) reads -44 | 14.6 µM [falling, single point] | 14.6 µM [falling, partial curve]

# Additional records follow:

Compound,cell number change [%],AC50 [1],AC50 [2]
CC(=O)Nc1ccc(OCC(O)Cn2nc(C)nc2C)cc1 (configuration not stated),-43.6,"8.2 µM [falling, partial curve]","8.2 µM [falling, partial curve]"
O=C(c1cc(Cl)cc(Cl)c1)N1CCC(=O)N(C(COCc2ccccc2)Cc2ccccc2)CC1 (configuration not stated),-1.54,"4.11 µM [rising, partial curve]",–
O=C(O)CC12CC3CC(C1)CC(n1ncc(NCc4ccco4)c(Cl)c1=O)(C3)C2,-14.8,–,–
Cc1ccsc1/C=N/N1CCN(c2ccccc2)CC1,5.5,"3.66 µM [rising, single point]",–
CC(=O)c1cccc(NC(=O)N2C3CCC2CC(NC(=O)Nc2ccccc2)C3)c1 (configuration not stated),–,"0.184 µM [rising, partial curve, poor fit]",–
Cc1cc(Cl)ccc1OCC(=O)Nc1cccc(S(=O)(=O)N2CCCC2)c1,17.6,"0.58 µM [rising, full curve, poor fit]",–
Cc1cc(C)n(C(C)CNS(=O)(=O)c2ccc(C)c(C)c2)n1 (configuration not stated),24.8,–,–
CCCc1ccc(OCc2ccc(C(=O)N3CCN(c4ccccn4)CC3)o2)c(OC)c1,–,"0.58 µM [falling, single point]","0.58 µM [falling, single point]"
CC(C)(C)c1ccc(OCC(=O)N/N=C/c2ccsc2)cc1,-26.2,–,–
O=C(Nc1cccc(F)c1)Nc1c[nH]c(=O)[nH]c1=O,-13.9,–,–
CC(C)C[C@H](NC(=O)N1CCn2c1nc1ccccc12)C(=O)N1CCCCC1,11,–,–
O=C(Nc1ccc(N2CCN(C(=O)c3cccs3)CC2)cc1)c1cccnc1,-14.2,"0.00461 µM [falling, full curve, poor fit]","0.00517 µM [falling, full curve, poor fit]"
CCCN1CNC(=S)N(CC2CCCO2)C1 (configuration not stated),16.7,–,"0.731 µM [falling, full curve]"
CCCN(CCC)C(C(=O)Nc1cccc(OC)c1)c1ccccc1 (configuration not stated),-11.9,"0.116 µM [falling, single point]",–
N#Cc1ccccc1/C=N/Nc1nc(-c2ccccc2)c2cc(Cl)ccc2n1,-7.53,–,–
Cc1cc(C(F)F)n2ncc(C(=O)NCc3ccccc3)c2n1,-13.4,"20.6 µM [rising, single point]",–
CCc1cccc(CC)c1-n1c(SCn2nnc3ccccc3c2=O)nnc1-c1cccnc1,41.1,"6.51 µM [rising, partial curve]","29.1 µM [rising, single point]"
O=C(C[n+]1cc[nH]c1)c1ccc(Cl)cc1,3.16,"0.58 µM [falling, single point]",–
Cc1nc2c(-c3ccc(F)cc3)c(C)nn2c(C)c1CCC(=O)N1CCOCC1,-4.78,"0.731 µM [rising, full curve]",–
COc1cccc(-c2nc(CS(=O)(=O)CC(=O)NCCCN3CCN(C)CC3)c(C)o2)c1,2.75,"10.3 µM [rising, partial curve]",–
COc1cccc(C(=O)COC(=O)c2cccs2)c1,3.47,"0.00517 µM [falling, full curve, poor fit]",–

Compound,cell number change [%],AC50 [1],AC50 [2]
COC(=O)CCC(=O)c1oc2ccccc2c1NC(=O)CCCN1C(=O)c2ccccc2C1=O,-33.3,"0.146 µM [falling, full curve, poor fit]",–
COc1ccc(-c2nc(C(=O)O)cs2)cc1OC,-30.2,"0.291 µM [falling, partial curve, poor fit]","0.058 µM [falling, full curve, poor fit]"
Cc1ccc(C(=O)O)cc1NC(=S)NC(=O)c1ccc(COc2ccccc2)cc1,18.2,–,–
COc1ccc(NC(=O)CN2CCN(c3ccc(C)cc3C)CC2)cc1,10.9,"29.1 µM [rising, single point]",–
N#CCSc1nc2ccccc2c(=O)n1CCCC(=O)NCC1CCCO1 (configuration not stated),26,–,"0.326 µM [rising, full curve, poor fit]"
CCOC(=O)CNS(=O)(=O)Cc1ccccc1,-5.78,–,–
CCOC(=O)Cc1csc(NC(=O)c2ccc(Br)s2)n1,-33.1,"29.1 µM [falling, single point]","23.1 µM [falling, partial curve]"
CC1=NN(C(C#N)c2ccccc2C)C(C)(C)C1 (configuration not stated),-21.6,"0.116 µM [falling, full curve, poor fit]",–
CC(=O)Nc1ccc(/C=N/Nc2ccc(C(=O)c3c(C)cc4ccccn34)cc2[N+](=O)[O-])cc1,-0.778,"4.11 µM [falling, full curve]",–
CCCCNS(=O)(=O)c1ccc2nc(SCC(=O)Nc3sccc3C#N)[nH]c2c1,-6.17,"0.461 µM [rising, full curve]",–
CCOC(=O)c1cnc(SC2CC(=O)N(c3ccccc3)C2=O)nc1N (configuration not stated),15.4,"11.6 µM [rising, partial curve, poor fit]",–
Cc1nn(CC(=O)NC(=O)NC2CCCC(C)C2C)c(=O)c(C#N)c1C (configuration not stated),3.99,"5.8 µM [rising, single point]",–
COc1ccccc1CN1CC(C(=O)NCCN2CCNC2=O)CCC1=O (configuration not stated),50.9,–,"20.6 µM [rising, single point]"
CC(=O)N1c2ccccc2C2(C)C(C1(C)C)C2(Cl)Cl (configuration not stated),-29.1,"2.06 µM [falling, full curve]",–
COc1ccc(-n2c3c(c(=O)[nH]c2=O)C(NS(=O)(=O)c2ccc(Cl)cc2)(C(F)(F)F)C(=O)N3)cc1 (configuration not stated),-2.31,"0.00411 µM [falling, full curve, poor fit]",–
COc1ccc(Cl)cc1N(CC(=O)Nc1ccccc1C(=O)N1CCCC1)S(C)(=O)=O,14.6,–,–
COCC(CN1CCN(C2=NS(=O)(=O)c3ccccc32)CC1)OC(=O)c1ccc(OC)cc1 (configuration not stated),14.5,–,–
CCOC(=O)c1c(NC(=O)c2ccccc2Br)sc2c1CCc1ccccc1-2,–,"10.3 µM [rising, partial curve]","0.517 µM [rising, full curve]"
CC(C)C(C)NC(=O)COc1ccc(-c2ccccc2)cc1 (configuration not stated),–,"5.17 µM [falling, partial curve]",–
